Measured data: PubChem BioAssay AID1259254 (NCATS, 2017)

Aim: 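Gene knock-downs that lead to re-replication, shown by excess G2 DNA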 (primary screen)
System: human HCT116 colorectal cancer cells
Reagent: single siRNA against human genes
Time to read-out: 3 days
Read-out: 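Nuclei stained with Hoechst and imaged; cell-cycle phase assigned by DNA content; G2 share scaled per plate, non-targeting siRNA 0%, GMNN siRNA 100%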
Scale: G2 robust z-score: higher = more G2 cells, more excess DNA replication
Hit rule: 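An siRNA counts as active if its G2 robust z-score lies at least 5 MADs above the screen median; here such calls match roughly 38% of GMNN control or more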
The whole screen tested about 59,000 reagents; this is a random part of them. Of all reagents, about 1,550 (2.6%) were called active. 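G2 share is only a proxy for re-replication; each gene was hit by three separate siRNAs, and active genes were retested.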 The numbers tell different reagents against one gene apart. Not all columns of the deposit are shown. The record does not give: the amount of reagent.

LINC00381 (long intergenic non-protein coding RNA 381) #1: G2 robust z-score = 0.162; activity call = inactive
LINC00381 (long intergenic non-protein coding RNA 381) #2: G2 robust z-score = 0.249; activity call = inactive
LINC00381 (long intergenic non-protein coding RNA 381) #3: G2 robust z-score = 2.33; activity call = inactive
PGBDF (plakoglobin binding and degradation factor) #1: G2 robust z-score = -1.31; activity call = inactive
PGBDF (plakoglobin binding and degradation factor) #2: G2 robust z-score = -0.189; activity call = inactive
PGBDF (plakoglobin binding and degradation factor) #3: G2 robust z-score = -0.691; activity call = inactive
ATP6V0A1 (ATPase H+ transporting V0 subunit a1) #1: G2 robust z-score = -0.225; activity call = inactive
ATP6V0A1 (ATPase H+ transporting V0 subunit a1) #2: G2 robust z-score = 1.9; activity call = inactive
ATP6V0A1 (ATPase H+ transporting V0 subunit a1) #3: G2 robust z-score = -0.503; activity call = inactive
TMC1 (transmembrane channel like 1) #1: G2 robust z-score = 0.583; activity call = inactive
TMC1 (transmembrane channel like 1) #2: G2 robust z-score = -0.721; activity call = inactive
TMC1 (transmembrane channel like 1) #3: G2 robust z-score = 0.211; activity call = inactive
OR8I2 (olfactory receptor family 8 subfamily I member 2) #1: G2 robust z-score = -0.391; activity call = inactive
OR8I2 (olfactory receptor family 8 subfamily I member 2) #2: G2 robust z-score = 1.14; activity call = inactive
OR8I2 (olfactory receptor family 8 subfamily I member 2) #3: G2 robust z-score = -0.798; activity call = inactive
AGFG1 (ArfGAP with FG repeats 1) #1: G2 robust z-score = -0.774; activity call = inactive
AGFG1 (ArfGAP with FG repeats 1) #2: G2 robust z-score = -0.881; activity call = inactive
AGFG1 (ArfGAP with FG repeats 1) #3: G2 robust z-score = 7.92; activity call = active
LONP2 (lon peptidase 2, peroxisomal) #1: G2 robust z-score = -0.0609; activity call = inactive
LONP2 (lon peptidase 2, peroxisomal) #2: G2 robust z-score = 1.26; activity call = inactive
LONP2 (lon peptidase 2, peroxisomal) #3: G2 robust z-score = -0.554; activity call = inactive
POLR2M (RNA polymerase II subunit M) #1: G2 robust z-score = -0.944; activity call = inactive
POLR2M (RNA polymerase II subunit M) #2: G2 robust z-score = -0.498; activity call = inactive
POLR2M (RNA polymerase II subunit M) #3: G2 robust z-score = 0.34; activity call = inactive
UQCC1 (ubiquinol-cytochrome c reductase complex assembly factor 1) #1: G2 robust z-score = -0.912; activity call = inactive
UQCC1 (ubiquinol-cytochrome c reductase complex assembly factor 1) #2: G2 robust z-score = -1.02; activity call = inactive
UQCC1 (ubiquinol-cytochrome c reductase complex assembly factor 1) #3: G2 robust z-score = -0.775; activity call = inactive
GNA15 (G protein subunit alpha 15) #1: G2 robust z-score = 0.744; activity call = inactive
GNA15 (G protein subunit alpha 15) #2: G2 robust z-score = 0.961; activity call = inactive
GNA15 (G protein subunit alpha 15) #3: G2 robust z-score = 0.00716; activity call = inactive

Copied from the list:
Under “G2 robust z-score”, ATP6V0A1 (ATPase H+ transporting V0 subunit a1) #3 shows -0.503
GNA15 (G protein subunit alpha 15) #1, G2 robust z-score: 0.744
Under “G2 robust z-score”, LINC00381 (long intergenic non-protein coding RNA 381) #2 has 0.249
